Data taken from article PMC9613683.
These are yes or no findings as the source states them, for the method shown. Binding seen in cells or lysates may run through a third protein. Some binding calls cover weakened binding; strength is not graded here.

Chains of the proteins cited; added tags and fusions are not shown. Lines headed by an entry give the natural chain unless they say otherwise; changes in a name come on top. A line that says so, or that is headed by a name, gives the form on record, which may keep a tag or linker. Residues count along the entry.
Coxsackievirus and adenovirus receptor (CAR) tagged with GFP (P78310, residues 20-365): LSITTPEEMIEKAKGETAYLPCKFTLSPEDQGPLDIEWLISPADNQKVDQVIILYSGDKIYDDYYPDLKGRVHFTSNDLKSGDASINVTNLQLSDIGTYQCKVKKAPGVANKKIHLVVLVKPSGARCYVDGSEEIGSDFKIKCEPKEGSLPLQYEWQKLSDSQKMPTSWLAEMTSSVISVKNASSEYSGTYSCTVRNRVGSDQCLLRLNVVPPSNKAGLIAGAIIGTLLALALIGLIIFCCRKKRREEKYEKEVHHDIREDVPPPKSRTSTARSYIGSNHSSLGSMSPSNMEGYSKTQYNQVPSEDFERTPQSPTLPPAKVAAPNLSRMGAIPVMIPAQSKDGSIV
T290/S293 phospho-dead mutant of CAR tagged with GFP (P78310, form named): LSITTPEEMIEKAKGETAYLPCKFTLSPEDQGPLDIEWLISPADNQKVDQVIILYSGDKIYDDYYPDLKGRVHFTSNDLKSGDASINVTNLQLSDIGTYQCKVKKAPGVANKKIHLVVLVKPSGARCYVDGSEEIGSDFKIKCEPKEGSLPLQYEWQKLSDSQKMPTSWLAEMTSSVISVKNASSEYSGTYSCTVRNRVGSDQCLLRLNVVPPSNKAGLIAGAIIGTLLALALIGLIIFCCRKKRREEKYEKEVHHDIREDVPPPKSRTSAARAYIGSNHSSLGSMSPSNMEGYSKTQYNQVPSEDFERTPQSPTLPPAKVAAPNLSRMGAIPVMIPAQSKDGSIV
UniProt Q03135: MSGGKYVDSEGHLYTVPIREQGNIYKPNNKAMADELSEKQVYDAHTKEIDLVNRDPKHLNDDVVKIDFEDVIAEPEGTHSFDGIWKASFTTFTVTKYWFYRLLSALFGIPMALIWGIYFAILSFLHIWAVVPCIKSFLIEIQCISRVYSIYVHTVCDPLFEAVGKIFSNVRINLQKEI

Legend:
[1] = target: T290/S293 phospho-dead mutant of CAR tagged with GFP (UniProt P78310); test: co-IP; GFP-trap immunoprecipitation as above from 16HBE cells treated with HDM for 1 h before lysis; blot for caveolin-1
[2] = target: Coxsackievirus and adenovirus receptor (CAR) tagged with GFP (UniProt P78310); test: co-IP; GFP-trap immunoprecipitation from lysates of 16HBE cells expressing GFP-tagged CAR, 2 h at 4 °C, 50 mM Tris pH 7.4, 150 mM NaCl, 1% NP40, 1% Triton X-100; blot for caveolin-1
[3] = target: T290/S293 phospho-dead mutant of CAR tagged with GFP (UniProt P78310); test: as above

Measured: binding

caveolin-1 (from UniProt Q03135 1-178)
binds: [1] | [2] | [3]
